Experimental data taken from article PMC8350576.
Results are given in words; binding and its absence hold for the method and conditions named. In cells and extracts the contact can be indirect. Some binding calls cover weakened binding; strength is not graded here.

Protein sequences, listed by entry. Tags and fused reporters are not part of them.
UniProt P49950: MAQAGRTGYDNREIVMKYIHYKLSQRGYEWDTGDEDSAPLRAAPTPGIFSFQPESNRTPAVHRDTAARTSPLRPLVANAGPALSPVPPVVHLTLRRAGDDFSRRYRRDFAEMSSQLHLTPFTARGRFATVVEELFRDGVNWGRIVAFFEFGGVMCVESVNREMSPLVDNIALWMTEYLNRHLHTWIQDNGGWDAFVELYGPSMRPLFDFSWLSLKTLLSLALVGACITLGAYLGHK
UniProt Q63690: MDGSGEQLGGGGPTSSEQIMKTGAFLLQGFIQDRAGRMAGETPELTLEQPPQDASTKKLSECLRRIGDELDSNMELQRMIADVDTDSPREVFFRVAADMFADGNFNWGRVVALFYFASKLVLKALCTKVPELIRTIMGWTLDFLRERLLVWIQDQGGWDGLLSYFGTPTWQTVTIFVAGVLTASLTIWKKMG

Experiments:
[1] = target: Bcl-2 (rat (endogenous in Sprague-Dawley rat hippocampus)) (UniProt P49950); experiment: co-IP; 500 ug total protein of rat ipsilateral hippocampus, day 3 after injury; precipitated with anti-Bcl-2 or anti-Bad and protein A/G agarose overnight at 4°C, rinsed four times with NP-40 buffer, western blot for Bcl-2, Bax and Bad; IgG as negative control; animals: sham, CCI, CCI + CORT 0.3, 3 or 30 mg/kg, CORT + SPIRO, CORT + RU486
[2] = target: T1, Bad (rat (endogenous in Sprague-Dawley rat hippocampus)) (UniProt O35147); experiment: as above
T1 sequence: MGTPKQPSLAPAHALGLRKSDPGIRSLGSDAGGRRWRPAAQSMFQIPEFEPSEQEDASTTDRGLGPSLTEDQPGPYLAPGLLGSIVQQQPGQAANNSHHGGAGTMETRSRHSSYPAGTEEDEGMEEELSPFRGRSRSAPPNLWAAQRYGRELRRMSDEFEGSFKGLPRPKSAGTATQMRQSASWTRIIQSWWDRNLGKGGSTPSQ

Row | Substance | binding [1] | binding [2]
1 | Bax (from UniProt Q63690 1-192) | binds | –
2 | Bcl-2 (from UniProt P49950 1-236) | – | binds
